Mtb growth Cornell: 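Whole-cell assay for inhibitors of Mycobacterium tuberculosis growth, labelled Cornell in the record; the read-out is not stated. The concentration is filed as 10 mM, unlikely as a test dose, so the dose is not known. The record gives no direction; compounds strong in two other growth screens of this library score well above the rest, so higher reads as stronger inhibition. Size under these conditions: about 53,000 compounds, about 900 of them at 50% or above in at least one test.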
Mtb heat-shock: 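Assay on Mycobacterium tuberculosis, filed only as a heat shock assay from Cornell; the read-out is not stated. The concentration is filed as 10 mM, unlikely as a test dose, so the dose is not known. Higher reads as stronger inhibition (inferred: compounds with an IC50 in retests scored well above the rest). About 69,000 compounds were tested under these conditions; 1.4% (about 930) showed 50% or more at least once.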

The filed quantity is “Percent Effect” (%). The record does not define 0% and 100%; most values in the screen are far below 50% and negative numbers occur (in some assays of this library far below -100). Compounds were drawn at random from those tested, without regard to their results.

{"compound": "CCc1nnc(SC2CCCN(c3cnn(C)c3)C2=O)n1C", "stereo": "configuration not stated", "Mtb growth Cornell": -59.39, "Mtb heat-shock": 3.424}
{"compound": "Cc1nc(C2CCCNC2)cc(N(C)CCc2ccccc2)n1", "stereo": "configuration not stated", "Mtb growth Cornell": 0.6184, "Mtb heat-shock": -4.675}
{"compound": "Cc1ccc(NC(=O)Cc2cnc3n(C)c(=O)[nH]c(=O)n23)cc1", "Mtb heat-shock": -10.38}
{"compound": "Cc1ccnc(C2CCCN2C(=O)c2cnccn2)n1", "stereo": "configuration not stated", "Mtb growth Cornell": -11.4, "Mtb heat-shock": -8.154}
{"compound": "COc1ccc(NC(=O)NCC(O)c2ccccc2F)c(OC)c1", "stereo": "configuration not stated", "Mtb growth Cornell": -1.534, "Mtb heat-shock": -29.83}
{"compound": "c1csc(N2CCCN(Cc3noc(C4CC4)n3)CC2)n1", "Mtb heat-shock": -6.96}
{"compound": "CCN1CCC2(CC1)OCCN2C(=O)c1ccc(OC)c(Cl)c1.Cl", "Mtb growth Cornell": -15.07, "Mtb heat-shock": 7.471}
{"compound": "CCOC(=O)c1cc2c(=O)[nH]c(=O)n(CCc3ccccc3)c2nc1C", "Mtb growth Cornell": 12.11, "Mtb heat-shock": 9.175}
{"compound": "CN(C)C(=O)NC1COC2(CCN(Cc3ccc(Cl)c(F)c3)CC2)C1.O=C(O)C(F)(F)F", "stereo": "configuration not stated", "Mtb growth Cornell": -15.43, "Mtb heat-shock": 3.269}
{"compound": "Cn1nnc2c1C(COCc1ccccn1)CN(C(=O)c1ccsc1)C2.O=C(O)C(F)(F)F", "stereo": "configuration not stated", "Mtb growth Cornell": -17.18, "Mtb heat-shock": -14.88}
{"compound": "Cc1cccc(CN2CCCC3(CCC(=O)N3CCN(C)C)CC2)n1.O=C(O)C(F)(F)F.O=C(O)C(F)(F)F", "stereo": "configuration not stated", "Mtb growth Cornell": 0.564, "Mtb heat-shock": -9.93}
{"compound": "CC(C)Oc1ccc(CC2=N[C@](C)(CO)CO2)cc1", "Mtb growth Cornell": -9.549, "Mtb heat-shock": 6.441}
{"compound": "O=C(O)C(F)(F)F.O=C(O)C(F)(F)F.c1cn2c(n1)CN(C1CCOCC1)CC(CN1CCCC1)C2", "stereo": "configuration not stated", "Mtb growth Cornell": 17.46, "Mtb heat-shock": 16.21}
{"compound": "Cc1c(CNC(=O)C2CCCN2C(=O)C2CC2)oc2ccccc12", "stereo": "configuration not stated", "Mtb growth Cornell": -9.043, "Mtb heat-shock": 4.077}
{"compound": "Cn1c(-c2ccccc2Cl)nc2cc(C(=O)NC(CO)CO)cnc21", "Mtb heat-shock": 16.42}
{"compound": "O=S1(=O)NC(C2CCCN(S(=O)(=O)N3CCCC3)C2)=Nc2ccccc21", "stereo": "configuration not stated", "Mtb growth Cornell": 32.86, "Mtb heat-shock": -15.23}
{"compound": "CC(=O)N(C)Cc1cccc(NC(=O)N(C)Cc2nccs2)c1", "Mtb growth Cornell": 3.13, "Mtb heat-shock": 0.8863}
{"compound": "[H][C@]12CCN(C(C)=O)CC[C@@]1([H])S(=O)(=O)N(CC)C2", "Mtb heat-shock": 15.6}
{"compound": "O=C1NCC(C(=O)Nc2ncc(Cc3ccccc3)s2)N1", "stereo": "configuration not stated", "Mtb growth Cornell": -21.97, "Mtb heat-shock": -23.4}
{"compound": "CC(C)OCCN1CCc2cncnc2C1", "Mtb growth Cornell": 16.9, "Mtb heat-shock": 4.561}
{"compound": "Cc1nc(C)c(CC(=O)Nc2nnc(C3CC3)s2)c(=O)[nH]1", "Mtb heat-shock": 24.25}
{"compound": "COCC(=O)NCc1cc(=O)n2c(n1)CN(Cc1ccoc1)CCC2", "Mtb growth Cornell": 9.501, "Mtb heat-shock": -18.44}
{"compound": "O=C(O)C(F)(F)F.O=C(O)C(F)(F)F.[H][C@]12CCN(C(=O)CC(C)C)CC[C@@]1([H])S(=O)(=O)CCN2Cc1cccnc1", "Mtb heat-shock": -2.401}
{"compound": "CCOc1cccc(CNC(=O)C(C)(C)C#N)c1OC(F)F", "Mtb growth Cornell": 24.44, "Mtb heat-shock": -0.4315}
{"compound": "CCN(CC(=O)Nc1cc(Cl)ccc1C)C(=O)c1cnccn1", "Mtb growth Cornell": 3.772, "Mtb heat-shock": 6.864}
{"compound": "COc1cccc(C2CCCN2C(=O)NCCCn2cccn2)c1", "stereo": "configuration not stated", "Mtb growth Cornell": 0.2247, "Mtb heat-shock": -10.86}
{"compound": "Cc1cccc(OCCNC(=O)CN2CCCC2c2noc(C)n2)c1", "stereo": "configuration not stated", "Mtb heat-shock": 5.503}
{"compound": "Cc1cc(N2Cc3cnc(CC(C)C)nc3C2)nc(N)n1", "Mtb growth Cornell": -9.56, "Mtb heat-shock": -14.05}
{"compound": "CN(Cc1noc2c1CCCC2)C(=O)Nc1cncc(F)c1", "Mtb growth Cornell": 6.777, "Mtb heat-shock": -30.5}
{"compound": "CC(Cc1ccco1)NC(=O)Nc1ccc(N(C)C)nc1", "stereo": "configuration not stated", "Mtb heat-shock": 2.176}
{"compound": "[H][C@]12CCC[C@@]1(COCC1CC1)CN(S(=O)(=O)N(C)C)C2", "Mtb growth Cornell": 22.02, "Mtb heat-shock": -34.65}
{"compound": "O=C(CCC1CCCC1)N1CCC(c2cc3ncccc3c(O)n2)CC1", "Mtb growth Cornell": 13.78, "Mtb heat-shock": 59.08}
{"compound": "CN(C)CC1CSCCCN1C(=O)c1ccc(-n2cccc2)cc1", "stereo": "configuration not stated", "Mtb heat-shock": -9.888}
{"compound": "Cc1ccc(NS(=O)(=O)CC2=NC(=O)n3cccc3C2=O)cc1", "Mtb heat-shock": 15.72}
{"compound": "O=C(C1CC1)N1CCc2c(ncnc2N2CCN3CCCC3C2)C1", "stereo": "configuration not stated", "Mtb growth Cornell": -7.352, "Mtb heat-shock": -23.34}
{"compound": "CC(C)(C)S(=O)(=O)c1ccc(N2CCC(n3cncn3)CC2)cn1", "Mtb growth Cornell": -14.59, "Mtb heat-shock": -8.008}
{"compound": "COc1ccc(C(CNC(=O)Nc2cn[nH]c2)N2CCOCC2)cc1", "stereo": "configuration not stated", "Mtb heat-shock": -8.738}
{"compound": "COCc1cc(NCC(F)(F)F)n2nccc2n1", "Mtb growth Cornell": -25.32, "Mtb heat-shock": -1.405}
{"compound": "Cl.c1cc(CNCc2ccnc(N3CCCC3)c2)c2c(c1)OCCO2", "Mtb growth Cornell": 4.312, "Mtb heat-shock": -42.92}
{"compound": "CCOc1cc(CN(C)CC(=O)O)ccc1OC(F)F.Cl", "Mtb growth Cornell": -5.668, "Mtb heat-shock": -22.89}
{"compound": "[H][C@]12CC[C@]([H])(CN(CC(=O)N(C)C)C1)N(Cc1ccccc1C#N)C2", "Mtb growth Cornell": -27.24, "Mtb heat-shock": -19.05}

For reference, 3 entries once more:

With CCOc1cc(CN(C)CC(=O)O)ccc1OC(F)F.Cl the screen gave Mtb growth Cornell: -5.668%; Mtb heat-shock: -22.89%.
With Cc1ccc(NS(=O)(=O)CC2=NC(=O)n3cccc3C2=O)cc1 the screen gave Mtb heat-shock: 15.72%.
With Cc1cccc(OCCNC(=O)CN2CCCC2c2noc(C)n2)c1 (configuration not stated) the screen gave Mtb heat-shock: 5.503%.

The values are deposited in ChEMBL (CHEMBL3988442, “University of Dundee, Small-Polar-MMV Screening Library” (2021)).